{"source": "PubChem BioAssay AID330", "about": "(DTP/NCI, 2004)", "system": "P388 leukemia ip, CD2F1 mice, survival T/C", "experiment": "NCI In Vivo Anticancer Drug Screen. Data for tumor model P388 Leukemia (intraperitoneal) in CD2F1 (CDF1) mice", "conditions": "T/C endpoint: median survival time, higher T/C = longer survival", "key": {"[1]": {"conditions": "dose: 200.0 mg/kg/injection, schedule: Q04DX003 (ip), vehicle: saline with Tween-80"}}, "note": "The list shows only some results of the screen, not a fair sample: it is rich in T/C values a quarter to a half above the control, in often repeated tests (any T/C) and in doses without a T/C. Further doses and runs are listed elsewhere. T/C is the treated group as % of the vehicle group. Some doses have a count of surviving animals in place of a T/C: the source files T/C as zero there, which appears to mark a toxic dose or a test without result, not a measured value. Some doses without a T/C left all or most animals alive at the check, yet need not have been tolerated: survival well below the control is almost never listed, so the zero probably covers shortened survival too. Survivors were counted at the toxicity check, usually on the fifth day, unless a day is given; later deaths do not show. Schedules are NCI's codes, taken here to give the interval after Q, in days (D) or hours (H), and the number of doses after X. For survival time, this PubChem deposit counts one and a half times the control or more as active, and values a quarter to a half above the control carry no call in these data; other NCI protocols may use other cut-offs.", "data": [{"smiles": "CSC1(SC2=NCCN2)SC2(NCCN2)S1", "values": [{"measurement": "survivor count", "setting": "dose: 100.0 mg/kg/injection, schedule: Q01DX001 (ip), vehicle: Klucel (hydroxypropylcellulose) (HPC)", "result": "6 of 6"}]}, {"smiles": "CS(=O)(=O)N1OC1c1ccccc1", "note": "(stereo not drawn)", "values": [{"measurement": "survivor count", "setting": "dose: 240.0 mg/kg/injection, schedule: Q01DX005 (ip), vehicle: Klucel (hydroxypropylcellulose) (HPC)", "result": "4 of 6"}]}, {"smiles": "CCCCC[N+]1(CC)CCCCC1", "values": [{"measurement": "survivor count", "setting": "dose: 50.0 mg/kg/injection, schedule: Q01DX009 (ip), vehicle: saline", "result": "0 of 6"}, {"measurement": "survivor count", "setting": "dose: 100.0 mg/kg/injection, schedule: Q01DX009 (ip), vehicle: saline", "result": "0 of 6"}, {"measurement": "survivor count", "setting": "dose: 200.0 mg/kg/injection, schedule: Q01DX009 (ip), vehicle: saline", "result": "0 of 6"}]}, {"smiles": "COc1cc2c[n+](C)c3c(c2cc1OC)Cc1c-3ccc(O)c1OC", "values": [{"measurement": "T/C", "setting": "dose: 200.0 mg/kg/injection, schedule: Q01DX001 (ip), vehicle: Klucel (hydroxypropylcellulose) (HPC)", "result": "134 % of control"}, {"measurement": "T/C", "setting": "dose: 400.0 mg/kg/injection, schedule: Q01DX001 (ip), vehicle: Klucel (hydroxypropylcellulose) (HPC)", "result": "137 % of control"}]}, {"smiles": "C[n+]1c(-c2cccc(OCCOCCOCCOc3cccc(-c4c5cc(N)ccc5c5ccc(N)cc5[n+]4C)c3)c2)c2cc(N)ccc2c2ccc(N)cc21", "values": [{"measurement": "survivor count", "setting": "dose: 1.56 mg/kg/injection, schedule: Q01DX009 (ip), vehicle: water", "result": "6 of 6"}, {"measurement": "survivor count", "setting": "dose: 3.12 mg/kg/injection, schedule: Q01DX009 (ip), vehicle: water", "result": "5 of 6"}, {"measurement": "survivor count", "setting": "dose: 6.25 mg/kg/injection, schedule: Q01DX009 (ip), vehicle: water", "result": "0 of 6"}, {"measurement": "survivor count", "setting": "dose: 12.5 mg/kg/injection, schedule: Q01DX009 (ip), vehicle: water", "result": "0 of 6"}]}, {"smiles": "COc1ccc(OC)c(C2N(Cc3ccccc3N(C)C)CCCN2Cc2ccccc2N(C)C)c1", "values": [{"measurement": "survivor count", "setting": "[1]", "result": "3 of 6"}]}, {"smiles": "COC(=O)Cn1/c(=N\\N=C(/C)c2ccc(C)cc2)sc2ccccc21", "values": [{"measurement": "survivor count", "setting": "dose: 400.0 mg/kg/injection, schedule: Q01DX001 (ip), vehicle: saline with Tween-80", "result": "6 of 6"}]}, {"smiles": "CC(CC(=O)c1ccccc1)=NCCCCN=C(C)CC(=O)c1ccccc1", "values": [{"measurement": "survivor count", "setting": "dose: 100.0 mg/kg/injection, schedule: Q04DX003 (ip), vehicle: saline with Tween-80", "result": "6 of 6"}, {"measurement": "survivor count", "setting": "[1]", "result": "6 of 6"}, {"measurement": "survivor count", "setting": "dose: 400.0 mg/kg/injection, schedule: Q04DX003 (ip), vehicle: saline with Tween-80", "result": "5 of 6"}]}, {"smiles": "COc1ccc2[nH]c3c(c2c1)C(=O)c1ccncc1C3=O", "values": [{"measurement": "survivor count", "setting": "dose: 18.75 mg/kg/injection, schedule: Q04DX002 (ip), vehicle: Klucel (hydroxypropylcellulose) (HPC)", "result": "6 of 6"}, {"measurement": "survivor count", "setting": "dose: 150.0 mg/kg/injection, schedule: Q04DX002 (ip), vehicle: Klucel (hydroxypropylcellulose) (HPC)", "result": "6 of 6"}]}]}
